Assay results as given in the supplement of paper PMC10849652.
The other results are listed elsewhere or left out.

Chains of the proteins cited; added tags and fusions are not shown. Lines headed by an entry give the natural chain unless they say otherwise; changes in a name come on top.
UniProt Q15111: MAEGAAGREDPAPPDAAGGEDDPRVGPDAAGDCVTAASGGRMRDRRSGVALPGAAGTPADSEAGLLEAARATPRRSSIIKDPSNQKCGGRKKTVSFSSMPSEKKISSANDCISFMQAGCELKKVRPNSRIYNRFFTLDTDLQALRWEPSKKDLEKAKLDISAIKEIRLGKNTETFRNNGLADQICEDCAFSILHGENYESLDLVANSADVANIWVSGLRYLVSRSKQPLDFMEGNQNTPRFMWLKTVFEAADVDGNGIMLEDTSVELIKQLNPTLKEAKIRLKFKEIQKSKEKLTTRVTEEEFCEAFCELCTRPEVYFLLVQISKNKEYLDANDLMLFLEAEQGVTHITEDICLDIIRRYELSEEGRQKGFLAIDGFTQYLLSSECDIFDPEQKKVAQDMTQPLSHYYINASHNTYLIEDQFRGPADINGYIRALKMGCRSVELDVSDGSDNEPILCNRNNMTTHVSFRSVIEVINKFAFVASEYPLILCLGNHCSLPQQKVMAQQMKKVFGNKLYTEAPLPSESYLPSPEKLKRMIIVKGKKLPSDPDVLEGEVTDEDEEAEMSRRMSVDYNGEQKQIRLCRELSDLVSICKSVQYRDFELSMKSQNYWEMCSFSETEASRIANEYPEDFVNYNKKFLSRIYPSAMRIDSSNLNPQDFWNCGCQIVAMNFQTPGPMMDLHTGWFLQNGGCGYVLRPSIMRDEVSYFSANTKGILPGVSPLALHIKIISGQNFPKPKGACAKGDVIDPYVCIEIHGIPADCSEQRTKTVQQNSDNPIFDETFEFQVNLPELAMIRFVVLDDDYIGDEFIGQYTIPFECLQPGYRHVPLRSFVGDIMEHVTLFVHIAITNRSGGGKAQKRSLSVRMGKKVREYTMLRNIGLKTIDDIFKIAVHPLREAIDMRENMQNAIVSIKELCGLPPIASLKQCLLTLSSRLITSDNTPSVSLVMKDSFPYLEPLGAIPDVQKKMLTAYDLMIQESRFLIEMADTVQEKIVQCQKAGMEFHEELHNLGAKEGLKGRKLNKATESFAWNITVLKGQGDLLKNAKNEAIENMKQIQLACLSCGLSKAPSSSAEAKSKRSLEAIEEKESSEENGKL
UniProt P19174: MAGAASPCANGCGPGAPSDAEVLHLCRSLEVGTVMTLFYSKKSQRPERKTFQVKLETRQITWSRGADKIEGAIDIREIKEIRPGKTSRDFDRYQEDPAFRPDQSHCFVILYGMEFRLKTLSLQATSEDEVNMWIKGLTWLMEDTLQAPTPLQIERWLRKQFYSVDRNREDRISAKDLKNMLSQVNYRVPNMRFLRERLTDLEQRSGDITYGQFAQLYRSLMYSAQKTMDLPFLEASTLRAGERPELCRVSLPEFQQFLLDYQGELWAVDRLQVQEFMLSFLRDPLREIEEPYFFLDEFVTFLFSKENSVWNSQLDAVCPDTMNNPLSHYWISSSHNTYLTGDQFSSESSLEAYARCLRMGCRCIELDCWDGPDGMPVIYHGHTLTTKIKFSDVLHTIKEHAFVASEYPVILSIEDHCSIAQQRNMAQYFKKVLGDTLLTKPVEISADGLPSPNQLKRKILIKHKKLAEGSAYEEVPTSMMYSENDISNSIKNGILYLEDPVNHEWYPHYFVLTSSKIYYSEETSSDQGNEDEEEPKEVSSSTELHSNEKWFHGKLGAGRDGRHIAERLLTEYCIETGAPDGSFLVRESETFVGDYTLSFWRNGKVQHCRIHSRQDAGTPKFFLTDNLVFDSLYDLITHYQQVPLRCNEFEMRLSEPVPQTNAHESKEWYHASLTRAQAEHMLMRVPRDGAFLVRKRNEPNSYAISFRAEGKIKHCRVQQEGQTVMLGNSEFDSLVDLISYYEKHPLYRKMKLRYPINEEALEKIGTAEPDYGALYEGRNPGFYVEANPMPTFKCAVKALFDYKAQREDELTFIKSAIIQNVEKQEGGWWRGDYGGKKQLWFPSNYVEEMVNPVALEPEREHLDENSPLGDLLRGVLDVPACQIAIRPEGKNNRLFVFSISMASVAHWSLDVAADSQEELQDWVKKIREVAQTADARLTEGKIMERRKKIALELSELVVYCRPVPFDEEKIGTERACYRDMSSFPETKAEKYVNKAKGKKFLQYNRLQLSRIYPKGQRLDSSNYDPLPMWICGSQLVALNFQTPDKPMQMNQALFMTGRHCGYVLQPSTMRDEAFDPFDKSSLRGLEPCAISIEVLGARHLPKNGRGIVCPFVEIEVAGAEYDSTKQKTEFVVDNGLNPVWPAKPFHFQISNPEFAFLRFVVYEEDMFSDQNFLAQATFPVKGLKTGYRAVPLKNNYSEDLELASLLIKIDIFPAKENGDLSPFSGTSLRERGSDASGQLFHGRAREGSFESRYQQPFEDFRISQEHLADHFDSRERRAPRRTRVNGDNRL
UniProt Q8TBX8: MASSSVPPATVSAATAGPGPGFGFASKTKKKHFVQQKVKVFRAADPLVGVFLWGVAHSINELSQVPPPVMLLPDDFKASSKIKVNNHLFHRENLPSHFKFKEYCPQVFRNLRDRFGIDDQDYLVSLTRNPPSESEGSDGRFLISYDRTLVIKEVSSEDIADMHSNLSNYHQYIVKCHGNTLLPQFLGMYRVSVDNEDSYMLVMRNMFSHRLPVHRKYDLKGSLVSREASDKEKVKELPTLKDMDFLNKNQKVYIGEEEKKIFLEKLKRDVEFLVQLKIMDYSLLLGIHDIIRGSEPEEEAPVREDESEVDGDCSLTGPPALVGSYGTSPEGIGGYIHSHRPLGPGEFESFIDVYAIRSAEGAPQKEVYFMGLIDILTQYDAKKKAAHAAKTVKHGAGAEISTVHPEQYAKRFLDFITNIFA
UniProt P48426: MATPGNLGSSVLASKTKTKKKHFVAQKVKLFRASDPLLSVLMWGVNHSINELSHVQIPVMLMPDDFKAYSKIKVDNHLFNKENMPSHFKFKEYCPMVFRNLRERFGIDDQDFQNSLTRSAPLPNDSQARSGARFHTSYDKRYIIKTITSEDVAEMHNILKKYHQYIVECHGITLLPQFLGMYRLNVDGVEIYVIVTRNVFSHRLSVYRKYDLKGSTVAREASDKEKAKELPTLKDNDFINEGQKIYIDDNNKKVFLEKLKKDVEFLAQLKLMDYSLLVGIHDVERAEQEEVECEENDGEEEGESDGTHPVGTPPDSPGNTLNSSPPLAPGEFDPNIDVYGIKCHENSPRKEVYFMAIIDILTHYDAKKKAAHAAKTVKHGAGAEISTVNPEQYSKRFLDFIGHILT
UniProt Q5JRX3: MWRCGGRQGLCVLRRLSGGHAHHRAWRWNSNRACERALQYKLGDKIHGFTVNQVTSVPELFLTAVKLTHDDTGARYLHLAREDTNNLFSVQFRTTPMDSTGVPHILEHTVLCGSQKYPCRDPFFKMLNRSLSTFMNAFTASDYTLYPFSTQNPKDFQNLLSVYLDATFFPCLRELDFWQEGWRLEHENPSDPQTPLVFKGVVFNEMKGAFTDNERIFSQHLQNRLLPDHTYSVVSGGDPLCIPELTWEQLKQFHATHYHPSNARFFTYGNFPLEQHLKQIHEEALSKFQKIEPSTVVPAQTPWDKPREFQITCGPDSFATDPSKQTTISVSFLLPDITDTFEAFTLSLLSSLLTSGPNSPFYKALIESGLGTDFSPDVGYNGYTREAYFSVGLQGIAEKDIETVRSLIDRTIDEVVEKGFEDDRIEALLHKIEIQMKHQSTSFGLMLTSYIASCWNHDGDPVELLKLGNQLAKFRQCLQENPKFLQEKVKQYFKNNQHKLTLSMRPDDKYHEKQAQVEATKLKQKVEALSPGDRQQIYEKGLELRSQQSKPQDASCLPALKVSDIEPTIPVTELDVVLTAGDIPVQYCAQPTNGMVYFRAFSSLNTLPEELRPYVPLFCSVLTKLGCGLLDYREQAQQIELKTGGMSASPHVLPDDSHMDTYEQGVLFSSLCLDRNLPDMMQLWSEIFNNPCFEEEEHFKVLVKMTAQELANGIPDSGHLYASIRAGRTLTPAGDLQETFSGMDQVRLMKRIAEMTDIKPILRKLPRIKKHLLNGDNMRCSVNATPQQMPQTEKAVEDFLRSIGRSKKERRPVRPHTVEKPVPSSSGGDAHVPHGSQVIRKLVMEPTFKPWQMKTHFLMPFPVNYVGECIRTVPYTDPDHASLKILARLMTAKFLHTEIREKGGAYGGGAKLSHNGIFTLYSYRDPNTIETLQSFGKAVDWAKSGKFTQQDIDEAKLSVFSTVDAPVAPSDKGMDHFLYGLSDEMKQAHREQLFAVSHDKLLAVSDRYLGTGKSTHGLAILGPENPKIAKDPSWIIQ
UniProt O00329: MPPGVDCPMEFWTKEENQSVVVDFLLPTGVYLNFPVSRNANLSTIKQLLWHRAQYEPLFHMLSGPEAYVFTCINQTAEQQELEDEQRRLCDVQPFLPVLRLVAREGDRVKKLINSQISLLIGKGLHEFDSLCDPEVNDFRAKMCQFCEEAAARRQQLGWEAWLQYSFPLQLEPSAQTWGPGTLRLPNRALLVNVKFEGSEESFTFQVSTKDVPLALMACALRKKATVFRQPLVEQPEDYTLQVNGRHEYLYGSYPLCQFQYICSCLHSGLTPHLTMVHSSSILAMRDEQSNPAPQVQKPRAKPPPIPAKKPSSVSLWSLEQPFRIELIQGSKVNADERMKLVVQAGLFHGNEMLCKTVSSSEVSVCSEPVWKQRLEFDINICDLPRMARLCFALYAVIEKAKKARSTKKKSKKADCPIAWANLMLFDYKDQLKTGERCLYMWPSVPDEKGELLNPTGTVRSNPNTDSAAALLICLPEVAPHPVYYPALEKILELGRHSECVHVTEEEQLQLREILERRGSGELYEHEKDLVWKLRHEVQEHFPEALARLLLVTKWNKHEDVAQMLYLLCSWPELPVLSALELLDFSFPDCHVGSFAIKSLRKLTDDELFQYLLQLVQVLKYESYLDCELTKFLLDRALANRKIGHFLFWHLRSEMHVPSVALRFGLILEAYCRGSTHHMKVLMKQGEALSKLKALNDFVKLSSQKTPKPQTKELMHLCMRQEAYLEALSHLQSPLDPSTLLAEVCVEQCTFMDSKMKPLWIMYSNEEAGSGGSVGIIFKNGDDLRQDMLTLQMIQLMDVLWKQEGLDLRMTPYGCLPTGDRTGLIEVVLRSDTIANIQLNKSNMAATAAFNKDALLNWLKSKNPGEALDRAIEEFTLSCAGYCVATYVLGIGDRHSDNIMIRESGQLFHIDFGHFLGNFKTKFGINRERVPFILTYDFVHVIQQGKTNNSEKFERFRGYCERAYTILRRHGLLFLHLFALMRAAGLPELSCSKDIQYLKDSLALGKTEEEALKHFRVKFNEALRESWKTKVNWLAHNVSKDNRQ
UniProt O60925, whole entry, looked up: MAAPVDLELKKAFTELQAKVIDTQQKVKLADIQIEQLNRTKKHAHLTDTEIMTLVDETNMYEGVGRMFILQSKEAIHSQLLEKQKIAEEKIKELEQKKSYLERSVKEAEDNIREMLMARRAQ
UniProt Q9C010: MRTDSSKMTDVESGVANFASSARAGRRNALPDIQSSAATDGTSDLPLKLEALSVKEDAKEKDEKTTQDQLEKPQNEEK
UniProt Q969N2: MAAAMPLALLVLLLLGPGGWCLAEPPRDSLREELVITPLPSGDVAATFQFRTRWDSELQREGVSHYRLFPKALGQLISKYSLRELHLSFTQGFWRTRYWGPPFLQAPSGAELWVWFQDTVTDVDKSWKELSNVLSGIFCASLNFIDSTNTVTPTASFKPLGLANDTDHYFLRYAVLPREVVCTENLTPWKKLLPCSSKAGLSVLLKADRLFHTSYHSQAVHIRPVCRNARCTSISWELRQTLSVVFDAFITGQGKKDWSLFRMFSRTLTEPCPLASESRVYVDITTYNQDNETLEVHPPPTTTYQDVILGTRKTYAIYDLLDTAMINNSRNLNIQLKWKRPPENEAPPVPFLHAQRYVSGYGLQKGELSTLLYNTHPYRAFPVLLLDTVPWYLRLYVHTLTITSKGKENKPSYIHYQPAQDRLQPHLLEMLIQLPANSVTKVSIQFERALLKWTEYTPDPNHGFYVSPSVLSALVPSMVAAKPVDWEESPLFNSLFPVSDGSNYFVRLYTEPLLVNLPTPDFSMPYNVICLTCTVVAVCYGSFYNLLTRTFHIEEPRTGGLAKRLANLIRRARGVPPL
UniProt Q9NXJ5: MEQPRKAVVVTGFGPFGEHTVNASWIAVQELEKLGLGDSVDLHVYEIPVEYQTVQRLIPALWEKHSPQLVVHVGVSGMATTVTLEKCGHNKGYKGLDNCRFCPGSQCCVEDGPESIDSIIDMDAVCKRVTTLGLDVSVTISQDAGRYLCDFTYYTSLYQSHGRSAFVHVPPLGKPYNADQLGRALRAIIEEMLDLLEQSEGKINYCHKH
UniProt Q9Y2B2: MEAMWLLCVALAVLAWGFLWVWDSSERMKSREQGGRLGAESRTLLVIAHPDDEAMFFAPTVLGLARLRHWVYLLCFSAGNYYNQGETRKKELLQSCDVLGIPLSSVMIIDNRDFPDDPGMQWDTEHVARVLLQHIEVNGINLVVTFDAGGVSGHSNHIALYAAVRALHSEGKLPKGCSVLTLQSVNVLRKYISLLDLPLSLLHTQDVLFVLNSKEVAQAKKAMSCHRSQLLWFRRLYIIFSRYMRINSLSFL

Experiments:
Test in all cases: log2 fold change, soluble protein after heating vs DMSO (PISA); higher = thermal stabilisation; K562 cells, 10 uM, 30 min; active = over 0.2 and 3.5 SD of the protein, either way, in both replicates (recomputed)
[1] = compound: CC[C@@H]1C(=O)N(C)c2cnc(Nc3ccc(C(=O)NC4CCN(C)CC4)cc3OC)nc2N1C1CCCC1
Summary of the method: (§1)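 K562 cells at 2×10^6 cells/mL were given 10 μM compound for 30 min. Aliquots then went through 3 min of heating across 48°C-58°C, were pooled, and were extracted in PBS with 0.5% NP-40 at 4°C, and the supernatant after 21,000xg for 90 min was quantified by TMTpro 16plex LC-MS/MS with channel sums equalised. Thermal stability relative to control samples, from duplicates, is given as log2 fold change.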

volasertib = compound: CC[C@@H]1C(=O)N(C)c2cnc(Nc3ccc(C(=O)N[C@H]4CC[C@H](N5CCN(CC6CC6)CC5)CC4)cc3OC)nc2N1C(C)C [volasertib]
Summary of the method: as §1

[2] = compound: CC[C@H](C)N1C=C(C2=C(C=C(C=C21)C3=CN=C(C=C3)N4CCNCC4)C(=O)NCC5=C(C=C(NC5=O)C)C)C
Summary of the method: as §1

epoxomicin = compound: CC[C@H](C)[C@@H](C(=O)N[C@@H]([C@@H](C)O)C(=O)N[C@@H](CC(C)C)C(=O)[C@]1(CO1)C)NC(=O)[C@H]([C@@H](C)CC)N(C)C(=O)C [epoxomicin]
Summary of the method: as §1

[3] = compound: CCn1cc(-c2ccnc3[nH]c(-c4cccc(CN(C)C)c4)cc23)c(-c2ccc(NC(=O)N(C)C)cc2)n1
Summary of the method: as §1

[4] = compound: CN1C2=C(C3=C1C(=O)N(N=C3)CC4=CC(=CC=C4)N)SC(=C2)S(=O)C
Summary of the method: as §1

[5] = compound: CN1CCC(CNc2ccc3ncc(-c4cccc(OC(F)(F)F)c4)n3n2)CC1
Summary of the method: as §1

[6] = compound: CN(C)CC(=O)Nc1ccc2[nH]c(=O)c3ccccc3c2c1
Summary of the method: as §1

[7] = compound: CCn1c(C(=O)N(C2CC2)C2CC2)cc2c3c(ncn3C)c(Nc3cc(C)n(C)n3)nc21
Summary of the method: as §1

rosiglitazone = compound: CN(CCOC1=CC=C(C=C1)C[C@H]2C(=O)NC(=O)S2)C3=CC=CC=N3 (racemic) [rosiglitazone]
Summary of the method: as §1

Measured: log2 fold change

PHKA1 (UniProt P46020)
inactive: [1] 0.042 | volasertib -0.367 | [2] 0.076 | epoxomicin -0.039 | [3] 0.143 | [4] 0.112 | [5] -0.045

PIK3C3 (UniProt Q8NEB9)
inactive: [1] 0.16 | volasertib 0.153 | [2] 0.023 | epoxomicin -0.071 | [3] -0.117 | [6] -0.03 | [4] 0.025 | [5] 0.015

PHF10 (UniProt Q8WUB8)
inactive: [1] 0.059 | volasertib -0.234 | epoxomicin -0.11 | [7] 0.013 | [3] -0.049 | [6] 0.052 | rosiglitazone -0.021 | [4] -0.106 | [5] -0.045

PIGM (UniProt Q9H3S5)
inactive: [1] -0.267 | [2] -0.07 | [7] -0.047 | [6] -0.244 | rosiglitazone -0.063 | [4] 0.034

PLCL1 (UniProt Q15111)
inactive: [1] -0.018 | [2] 0.232 | epoxomicin -0.034 | [3] 0.311 | [6] 0.035 | [5] -0.094

PLCG1 isoform 2 (UniProt P19174)
active: [5] -0.412
inactive: [1] -0.031 | volasertib -0.25 | [2] 0.05 | epoxomicin 0.014 | [3] -0.187 | [6] 0.085 | [4] 0.083

PIGN (UniProt O95427)
inactive: [1] 0.168 | volasertib -0.075 | [2] 0.003 | epoxomicin 0.068 | [3] 0.115 | rosiglitazone -0.12 | [4] 0.143 | [5] -0.194

PKN1 isoform 2 (UniProt Q16512)
active: [5] -0.772
inactive: [1] 0.005 | volasertib -0.105 | [2] 0.084 | epoxomicin 0.014 | [3] -0.038 | [6] 0.009 | [4] -0.021

PJA2 (UniProt O43164)
inactive: [1] -0.007 | volasertib 0.001 | [2] 0.014 | epoxomicin 0.202 | [3] 0.066 | [6] -0.051 | [4] -0.001 | [5] -0.156

PIP4K2C (UniProt Q8TBX8)
active: [1] 1.12 | volasertib 1.19
inactive: [2] -0.096 | epoxomicin -0.022 | [3] 0.05 | [6] -0.016 | [4] 0.699 | [5] 0.384

PHAX (UniProt Q9H814)
inactive: [1] -0.03 | volasertib -0.106 | [2] 0.027 | epoxomicin -0.041 | [3] 0.111 | [6] 0.011 | [4] -0.054 | [5] 0.042

PIP4K2A (UniProt P48426)
inactive: [2] -0.055 | epoxomicin 0.018 | [3] -0.052 | [6] -0.021 | [4] 0.04 | [5] 0.114
active: [1] 0.602 | volasertib 0.768

PHLDB1 isoform 2 (UniProt Q86UU1)
active: [5] -0.585
inactive: [1] -0.03 | volasertib -0.222 | [2] -0.06 | epoxomicin 0.061 | [3] -0.04 | [6] -0.034 | [4] -0.022

PIGG (UniProt Q5H8A4)
inactive: [1] -0.062 | volasertib 0.022 | [2] 0.037 | epoxomicin -0.017 | [3] -0.022 | [6] 0.009 | [4] -0.04 | [5] 0.093

PFN1 (UniProt I3L3D5)
inactive: [1] 0.027 | volasertib 0.105 | epoxomicin -0.151 | [7] -0.242 | [3] -0.078 | rosiglitazone -0.067 | [5] -0.192

PIK3CB (UniProt P42338)
active: volasertib -0.224
inactive: [1] 0.017 | [2] 0.082 | epoxomicin 0.033 | [3] -0.071 | [6] 0.008 | [4] 0.003 | [5] 0.175

PITRM1 isoform 2 (UniProt Q5JRX3)
active: volasertib 0.489
inactive: [1] 0.048 | [2] 0.166 | epoxomicin -0.029 | [3] -0.084 | [6] 0.023 | [4] -0.124 | [5] -0.189

PKM (UniProt P14618)
inactive: [1] 0.018 | volasertib 0.037 | [2] -0.035 | epoxomicin 0.001 | [3] -0.007 | [6] -0.015 | [4] 0.002 | [5] -0.017

PIK3CD (UniProt O00329)
inactive: [1] -0.069 | volasertib -0.036 | epoxomicin -0.076 | [6] -0.059 | [4] 0

PFDN1 (UniProt O60925)
inactive: [1] 0.044 | volasertib -0.009 | [2] -0.004 | epoxomicin 0.183 | [3] -0.019 | [6] 0 | [4] -0.119 | [5] 0.113

PEX7 (UniProt O00628)
inactive: [1] 0.038 | volasertib 0.005 | [2] -0.027 | epoxomicin 0.075 | [3] -0.01 | [6] 0.091 | [4] -0.067 | [5] 0.023

PIP4K2B (UniProt P78356)
active: [1] 0.573 | volasertib 0.776
inactive: [2] -0.089 | epoxomicin 0.015 | [3] -0.054 | [6] 0.029 | [4] 0.172 | [5] 0.231

PHF5A (UniProt Q7RTV0)
inactive: [1] 0.013 | volasertib 0.065 | [2] -0.061 | epoxomicin 0.051 | [3] 0.087 | [6] -0.063 | [4] -0.017 | [5] 0.017

PKIB isoform 2 (UniProt Q9C010)
inactive: [1] 0.278 | volasertib -0.024 | [7] 0.002 | [3] -0.05 | [5] -0.037

PIGT (UniProt Q969N2)
inactive: [1] 0.02 | volasertib -0.118 | [2] 0.035 | epoxomicin -0.011 | [3] -0.046 | [6] 0.013 | [4] 0.015 | [5] 0.081

PGPEP1 (UniProt Q9NXJ5)
inactive: [1] 0.179 | volasertib -0.204 | epoxomicin 0.048 | [7] -0.04 | [6] -0.24 | rosiglitazone 0.093 | [4] -0.236

PGM3 isoform 4 (UniProt O95394)
active: [5] -0.235
inactive: [1] 0.003 | volasertib 0.052 | [2] 0.092 | epoxomicin 0.014 | [3] -0.038 | [6] 0.026 | [4] -0.084

PIGL (UniProt Q9Y2B2)
inactive: [1] 0.001 | [2] 0.049 | epoxomicin 0.011 | [7] 0.058 | [3] -0.031 | [6] -0.052 | rosiglitazone 0.033 | [4] -0.058 | [5] 0.042

PHKA2 (UniProt P46019)
inactive: [1] -0.049 | volasertib -0.094 | [2] -0.174 | epoxomicin 0.071 | [3] -0.029 | [6] 0.01 | [4] -0.002
active: [5] -0.35

PISD (UniProt Q9UG56)
inactive: [1] -0.136 | volasertib -0.117 | [2] -0.017 | epoxomicin -0.002 | [3] -0.076 | [6] -0.113 | [4] -0.036 | [5] -0.192

Quoted at random: 2 records from the list
PGM3 isoform 4 (UniProt O95394)
active: [5] -0.235
inactive: [1] 0.003 | volasertib 0.052 | [2] 0.092 | epoxomicin 0.014 | [3] -0.038 | [6] 0.026 | [4] -0.084

PGPEP1 (UniProt Q9NXJ5)
inactive: [1] 0.179 | volasertib -0.204 | epoxomicin 0.048 | [7] -0.04 | [6] -0.24 | rosiglitazone 0.093 | [4] -0.236

(list continues)

PFN3 (UniProt P60673)
inactive: [1] 0.075 | volasertib 0.069 | epoxomicin -0.306 | [3] -0.08 | [6] 0.001 | [4] 0.321 | [5] -0.338
